Values quoted from earlier work in patent US20070043105A1, “Preventive for cerebal stroke recurrence” (ASTELLAS PHARMA INC., priority 2003, published 2007).

System: brain infarction model animals
Conditions: administered for 3 days before the brain infarction attack; cited from earlier work

CC(C)c1c(C(=O)Nc2ccccc2)c(-c2ccccc2)c(-c2ccc(F)cc2)n1CC[C@@H](O)C[C@@H](O)CC(=O)O [atorvastatin, (-)-(3R,5R)-7-[2-(4-fluorophenyl)-5-isopropyl-3-phenyl-4-phenylcarbamoyl-1H-pyrrol-1-yl]-3,5-dihydroxyheptanoic acid]
brain infarction volume: effective for reducing the brain infarction volume
